Results: PMC4660213, “Identification and characterization of multiple rubisco activases in chemoautotrophic bacteria” (Nature Communications, 2015)
These are yes or no findings as the source states them, for the method shown. In cells and extracts the contact can be indirect. Binding can be weak; no strength is given.

Amino acid sequences for entries named in this document (tags omitted). A change or cut given only in a name is not applied to a line headed by its entry.
UniProt B7JA26: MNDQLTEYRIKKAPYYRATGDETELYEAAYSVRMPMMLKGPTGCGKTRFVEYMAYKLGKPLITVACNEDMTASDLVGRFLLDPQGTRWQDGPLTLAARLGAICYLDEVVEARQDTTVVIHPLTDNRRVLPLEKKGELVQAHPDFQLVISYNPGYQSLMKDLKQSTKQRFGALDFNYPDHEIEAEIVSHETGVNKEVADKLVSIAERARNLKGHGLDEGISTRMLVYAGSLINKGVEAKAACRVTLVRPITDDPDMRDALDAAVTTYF
UniProt B7J5E4: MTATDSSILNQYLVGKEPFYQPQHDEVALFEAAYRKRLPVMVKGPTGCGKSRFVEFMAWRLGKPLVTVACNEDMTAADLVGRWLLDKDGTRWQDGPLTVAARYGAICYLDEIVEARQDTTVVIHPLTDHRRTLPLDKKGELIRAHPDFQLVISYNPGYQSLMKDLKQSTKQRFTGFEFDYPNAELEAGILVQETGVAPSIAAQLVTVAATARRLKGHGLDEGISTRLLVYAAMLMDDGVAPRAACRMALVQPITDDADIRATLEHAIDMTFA
UniProt B7JA27: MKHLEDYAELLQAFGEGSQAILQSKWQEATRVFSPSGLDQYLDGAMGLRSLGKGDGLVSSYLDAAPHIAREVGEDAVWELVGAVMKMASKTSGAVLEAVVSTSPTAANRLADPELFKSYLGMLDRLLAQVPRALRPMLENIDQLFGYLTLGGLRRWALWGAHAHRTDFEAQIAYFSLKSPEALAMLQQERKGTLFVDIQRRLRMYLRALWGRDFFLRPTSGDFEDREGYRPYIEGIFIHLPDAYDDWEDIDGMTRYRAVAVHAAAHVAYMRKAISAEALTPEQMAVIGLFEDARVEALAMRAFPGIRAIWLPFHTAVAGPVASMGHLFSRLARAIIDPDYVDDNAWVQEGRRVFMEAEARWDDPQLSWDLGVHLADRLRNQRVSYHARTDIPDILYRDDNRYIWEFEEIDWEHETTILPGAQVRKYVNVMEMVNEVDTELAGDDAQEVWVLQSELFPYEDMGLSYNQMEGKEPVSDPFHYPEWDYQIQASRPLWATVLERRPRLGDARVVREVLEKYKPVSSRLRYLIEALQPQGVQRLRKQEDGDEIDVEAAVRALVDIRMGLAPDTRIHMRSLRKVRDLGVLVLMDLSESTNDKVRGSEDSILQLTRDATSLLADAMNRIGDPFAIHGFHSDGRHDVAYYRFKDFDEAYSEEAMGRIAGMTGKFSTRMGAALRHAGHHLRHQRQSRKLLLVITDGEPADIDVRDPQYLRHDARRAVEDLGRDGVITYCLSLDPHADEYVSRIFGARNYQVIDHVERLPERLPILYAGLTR
UniProt B7J5E5: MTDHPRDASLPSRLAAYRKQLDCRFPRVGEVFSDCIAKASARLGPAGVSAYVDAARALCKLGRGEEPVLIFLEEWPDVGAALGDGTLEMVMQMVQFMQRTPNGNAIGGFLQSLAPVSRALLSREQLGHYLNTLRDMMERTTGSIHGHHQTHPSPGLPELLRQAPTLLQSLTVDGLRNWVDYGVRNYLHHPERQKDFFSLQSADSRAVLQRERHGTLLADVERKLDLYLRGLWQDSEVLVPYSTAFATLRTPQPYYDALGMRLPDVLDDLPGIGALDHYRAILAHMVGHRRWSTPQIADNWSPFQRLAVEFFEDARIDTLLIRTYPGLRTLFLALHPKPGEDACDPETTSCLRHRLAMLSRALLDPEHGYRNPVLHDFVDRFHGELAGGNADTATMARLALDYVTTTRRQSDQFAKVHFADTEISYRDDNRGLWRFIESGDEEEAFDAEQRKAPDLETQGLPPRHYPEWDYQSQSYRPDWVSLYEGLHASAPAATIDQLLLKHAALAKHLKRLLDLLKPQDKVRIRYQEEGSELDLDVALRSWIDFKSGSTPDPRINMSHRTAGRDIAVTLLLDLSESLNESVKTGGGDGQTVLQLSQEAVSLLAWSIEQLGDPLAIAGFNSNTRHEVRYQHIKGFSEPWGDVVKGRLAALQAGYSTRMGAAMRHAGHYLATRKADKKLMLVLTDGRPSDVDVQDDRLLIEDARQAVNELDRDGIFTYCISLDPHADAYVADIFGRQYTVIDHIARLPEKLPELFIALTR

How the values were obtained:
[1] = target: Acidithiobacillus ferrooxidans CbbQ1 (Acidithiobacillus ferrooxidans ATCC 23270) (UniProt B7JA26); test: co-purification (Ni-NTA, ion-exchange and size-exclusion chromatography); CbbQ and CbbO co-expressed in E. coli as His6–ubiquitin fusions, ubiquitin cleaved, MonoQ, Superdex 200; Q2O2 also with 1 mM Mg-ATP in all buffers (identical profile)
[2] = target: Acidithiobacillus ferrooxidans CbbQ2 (Acidithiobacillus ferrooxidans ATCC 23270) (UniProt B7J5E4); test: as above

| binding [1] | binding [2] | Substance |
| --- | --- | --- |
| binds |  | Acidithiobacillus ferrooxidans CbbO1 (from UniProt B7JA27) |
|  | binds | Acidithiobacillus ferrooxidans CbbO2 (from UniProt B7J5E5) |
